Assay results taken from article PMC8051872.
Results are given in words; binding and its absence hold for the method and conditions named. Where a sequence is shown, tags or fusion partners need not be part of it.

Molecular target: MBP-CUB1-2-His (C1275S) (human) (UniProt Q76LX8)
Assay: SEC; gel filtration on HiPrep 26/60 Sephacryl S-200HR in 20 mM Hepes (pH 7.5), 150 mM NaCl, 5 mM CaCl2, 5 mM maltose, after Ni2+-chelating chromatography; monodisperse peaks; both purified

binding: no binding
B1: MBP-CUB1-2-His (C1275S) (domain or fragment, UniProt Q76LX8 1189-1427)
chain: SSACGRQHLEPTGTIDMRGPGQADCAVAIGRPLGEVVTLRVLESSLNCSAGDMLLLWGRLTWRKMCRKLLDMTFSSKTNTLVVRQRSGRPGGGVLLRYGSQLAPETFYRECDMQLFGPWGEIVSPSLSPATSNAGGCRLFINVAPHARIAIHALATNMGAGTEGANASYILIRDTHSLRTTAFHGQQVLYWESESSQAEMEFSEGFLKAQASLRGQYWTLQSWVPEMQDPQSWKGKEGT
modifications: N-linked glycans on Asn1235 and Asn1354
